From PubChem BioAssay AID248 (DTP/NCI, 2004)
The list does not hold the whole screen: it is rich in T/C values a quarter to a half above the control, in often repeated tests (any T/C) and in doses without a T/C. Further doses and runs are listed elsewhere. T/C: endpoint of the treated group in % of that of the vehicle group. Some doses have a count of surviving animals in place of a T/C: the source files T/C as zero there, which appears to mark a toxic dose or a test without result, not a measured value. Some doses without a T/C left all or most animals alive at the check, yet need not have been tolerated: the source hardly ever lists a survival T/C far under the control, and the zero likely stands for such cases as well. Counts of survivors are from the toxicity check (mostly the fifth day) where no day follows; animals may have died later. Schedule codes are those of the source, read here as Q, the interval in days (D) or hours (H), X, the number of doses. Some schedule codes hold Z or #, which are not explained here.

Test system: L1210 leukemia ip in BDF1 mice, survival T/C
Experiment: NCI In Vivo Anticancer Drug Screen. Data for tumor model L1210 Leukemia (intraperitoneal) in B6D2F1 (BDF1) mice
Conditions: T/C endpoint: mean survival time, higher T/C = longer survival
[1] = dose: 100.0 mg/kg/injection, schedule: Q01DX009 (ip), vehicle: saline with Tween-80
[2] = dose: 200.0 mg/kg/injection, schedule: Q01DX009 (ip), vehicle: saline with Tween-80
[3] = dose: 400.0 mg/kg/injection, schedule: Q01DX009 (ip), vehicle: saline with Tween-80
[4] = dose: 400.0 mg/kg/injection, schedule: Q04DX003 (ip), vehicle: saline with Tween-80
[5] = dose: 25.0 mg/kg/injection, schedule: Q01DX009 (ip), vehicle: saline with Tween-80
[6] = dose: 400.0 mg/kg/injection, schedule: Q01DX009 (ip), vehicle: Klucel (hydroxypropylcellulose) (HPC)
[7] = dose: 200.0 mg/kg/injection, schedule: Q01DX001 (ip), vehicle: saline
[8] = dose: 400.0 mg/kg/injection, schedule: Q01DX001 (ip), vehicle: saline
[9] = dose: 200.0 mg/kg/injection, schedule: Q01DX009 (ip), vehicle: Klucel (hydroxypropylcellulose) (HPC)
[10] = dose: 200.0 mg/kg/injection, schedule: Q04DX002 (ip), vehicle: saline with Tween-80

NC(N)=N/N=C(\CBr)c1ccc([N+](=O)[O-])cc1
survivor count (dose: 120.0 mg/kg/injection, schedule: Q01DX Z (ip), vehicle: carboxymethylcellulose (CMC)): 0 of 6
survivor count (dose: 240.0 mg/kg/injection, schedule: Q01DX Z (ip), vehicle: carboxymethylcellulose (CMC)): 0 of 6
survivor count (dose: 480.0 mg/kg/injection, schedule: Q01DX Z (ip), vehicle: carboxymethylcellulose (CMC)): 0 of 6

CCCC(=O)NC1CCC(CC2CCCCC2)CC1 (stereo not given)
survivor count (dose: 400.0 mg/kg/injection, schedule: Q04DX003 (ip), vehicle: other): 3 of 6

COc1ccc(C2=C(C)CC3c4cc(OC)c(OC)cc4CCN3C2)cc1OC (stereo not given)
survivor count (dose: 118.0 mg/kg/injection, schedule: Q01DX001 (ip), vehicle: carboxymethylcellulose (CMC)): 2 of 6
survivor count (dose: 177.0 mg/kg/injection, schedule: Q01DX001 (ip), vehicle: carboxymethylcellulose (CMC)): 1 of 6
survivor count (dose: 266.0 mg/kg/injection, schedule: Q01DX001 (ip), vehicle: carboxymethylcellulose (CMC)): 0 of 6
survivor count (dose: 400.0 mg/kg/injection, schedule: Q01DX001 (ip), vehicle: carboxymethylcellulose (CMC)): 0 of 6
survivor count (dose: 600.0 mg/kg/injection, schedule: Q01DX001 (ip), vehicle: carboxymethylcellulose (CMC)): 0 of 6

N#CCCCC(=O)c1ccccc1
survivor count [1]: 3 of 6
survivor count [2]: 2 of 6
survivor count [3]: 0 of 6

O=C(COc1ccc(Cl)cc1Cl)Nc1ccc(NC(=O)COc2ccc(Cl)cc2Cl)cc1
survivor count (dose: 100.0 mg/kg/injection, schedule: Q04DX002 (ip), vehicle: Klucel (hydroxypropylcellulose) (HPC)): 3 of 3
survivor count (dose: 200.0 mg/kg/injection, schedule: Q04DX002 (ip), vehicle: Klucel (hydroxypropylcellulose) (HPC)): 3 of 3
survivor count (dose: 400.0 mg/kg/injection, schedule: Q04DX002 (ip), vehicle: Klucel (hydroxypropylcellulose) (HPC)): 3 of 3

O=[n+]1ccn2ccccc2c1
survivor count (dose: 200.0 mg/kg/injection, schedule: Q01DX009 (ip), vehicle: saline): 1 of 6
survivor count (dose: 400.0 mg/kg/injection, schedule: Q04DX003 (ip), vehicle: Klucel (hydroxypropylcellulose) (HPC)): 0 of 6

O=S(=O)(/C=C\c1ccccc1)c1ccccc1
survivor count (dose: 400.0 mg/kg/injection, schedule: Q04DX003 (ip), vehicle: acetone): 2 of 6

COc1cc(OC)cc(C(=O)N2CC2)c1
survivor count (dose: 100.0 mg/kg/injection, schedule: Q01DX009 (ip), vehicle: water): 5 of 6
survivor count (dose: 200.0 mg/kg/injection, schedule: Q01DX009 (ip), vehicle: water): 0 of 6
survivor count (dose: 400.0 mg/kg/injection, schedule: Q01DX009 (ip), vehicle: water): 0 of 6

O=C1c2cccc([N+](=O)[O-])c2C(=O)N1CCl
survivor count (dose: 400.0 mg/kg/injection, schedule: Q01DX001 (ip), vehicle: steroid suspending solution): 4 of 4

O=C1CCCCCN1
survivor count (dose: 400.0 mg/kg/injection, schedule: Q01DX009 (ip), vehicle: saline): 3 of 6

Nc1c(I)cc(C(=O)O)c(O)c1I
survivor count [4]: 1 of 6

CN1Cc2ccccc2-c2ccccc2C1
survivor count (dose: 150.0 mg/kg/injection, schedule: Q01DX001 (ip), vehicle: saline): 0 of 6
survivor count (dose: 300.0 mg/kg/injection, schedule: Q01DX001 (ip), vehicle: saline): 0 of 6

NC(=S)N/N=C/c1ccc(Br)cn1
survivor count [5]: 0 of 3

Clc1ccc(CI)cc1
survivor count (dose: 100.0 mg/kg/injection, schedule: Q04DX003 (ip), vehicle: alcohol): 6 of 6
survivor count (dose: 200.0 mg/kg/injection, schedule: Q04DX003 (ip), vehicle: alcohol): 5 of 6
survivor count (dose: 400.0 mg/kg/injection, schedule: Q04DX003 (ip), vehicle: alcohol): 2 of 6

O=c1oc(-c2ccco2)nc2ccccc12
survivor count [6]: 3 of 6

Nc1ccc(CCCCOc2ccccc2)cc1
survivor count (dose: 200.0 mg/kg/injection, schedule: Q01DX001 (ip), vehicle: saline with Tween-80): 2 of 6
survivor count (dose: 400.0 mg/kg/injection, schedule: Q01DX001 (ip), vehicle: saline with Tween-80): 1 of 6

CC(=O)N(N=O)c1c(C)cccc1C
survivor count [7]: 1 of 4
survivor count [8]: 0 of 4

O=[N+]([O-])/C=C\C(Cl)(Cl)Cl
survivor count [5]: 0 of 6
survivor count (dose: 50.0 mg/kg/injection, schedule: Q01DX009 (ip), vehicle: saline with Tween-80): 0 of 6
survivor count [1]: 0 of 6
survivor count [2]: 0 of 6
survivor count [3]: 0 of 6

O=C(Nc1ccc(Cl)cc1)Oc1ccc(Cl)cc1Cl
survivor count (dose: 12.5 mg/kg/injection, schedule: Q01DX009 (ip), vehicle: DMSO): 5 of 6
survivor count (dose: 50.0 mg/kg/injection, schedule: Q01DX009 (ip), vehicle: DMSO): 2 of 3
survivor count (dose: 100.0 mg/kg/injection, schedule: Q01DX009 (ip), vehicle: DMSO): 1 of 3
survivor count (dose: 100.0 mg/kg/injection, schedule: Q04DX002 (ip), vehicle: DMSO): 3 of 3
survivor count (dose: 200.0 mg/kg/injection, schedule: Q01DX009 (ip), vehicle: DMSO): 0 of 3
survivor count (dose: 400.0 mg/kg/injection, schedule: Q04DX002 (ip), vehicle: DMSO): 0 of 3

CCCCCc1cc[n+](CC(O)c2ccccc2)cc1 (stereo not given)
survivor count [7]: 0 of 4
survivor count [8]: 0 of 4

CC1CNC2C(C)C3C(CC4C5CCC6CC(N=Cc7ccccc7)C(O)CC6(C)C5CCC43C)OC2(O)C1 (stereo not given)
survivor count (dose: 200.0 mg/kg/injection, schedule: Q01DX001 (ip), vehicle: Klucel (hydroxypropylcellulose) (HPC)): 3 of 3

O=C1N(Cl)C(=O)C(c2ccc(C(F)(F)F)cc2)(c2ccc(C(F)(F)F)cc2)N1Cl
survivor count [2]: 5 of 6
survivor count [4]: 3 of 6

Cc1ccc(NC(=O)N2CC2)cc1NC(=O)N1CC1
survivor count (dose: 100.0 mg/kg/injection, schedule: Q01DX009 (ip), vehicle: Klucel (hydroxypropylcellulose) (HPC)): 0 of 6
survivor count [9]: 0 of 6
survivor count [6]: 0 of 6

CCC1C2CC3C4N(C)c5ccccc5C45CC(C2C5O)N3C1O (stereo not given)
survivor count [2]: 0 of 3

CCOc1ccc(/C=N\N=C\c2ccc(OCC)cc2)cc1
survivor count [9]: 6 of 6
survivor count (dose: 200.0 mg/kg/injection, schedule: Q04DX003 (ip), vehicle: Klucel (hydroxypropylcellulose) (HPC)): 6 of 6
survivor count [6]: 6 of 6

CC(C)N=C(NC(C)C)c1ccc(NC(=O)c2ccc(C(=O)Nc3ccc(C(=NC(C)C)NC(C)C)cc3)cc2)cc1
survivor count (dose: 31.0 mg/kg/injection, schedule: Q01DX Z (ip), vehicle: methylcellulose (MC)): 0 of 6
survivor count (dose: 62.5 mg/kg/injection, schedule: Q01DX Z (ip), vehicle: methylcellulose (MC)): 0 of 6
survivor count (dose: 125.0 mg/kg/injection, schedule: Q01DX Z (ip), vehicle: methylcellulose (MC)): 0 of 6

O=C(C[n+]1ccccc1)N/N=C/c1ccc(O)c(O)c1
survivor count [4]: 0 of 6

O=C(/C=C\c1ccc(Cl)c(Cl)c1)/C=C/c1ccc(Cl)c(Cl)c1
survivor count [10]: 3 of 3

N#CCCCCCCCCCC#N
survivor count [9]: 0 of 6
survivor count [6]: 0 of 6

O=[N+]([O-])c1ccc(CBr)cc1
survivor count (dose: 100.0 mg/kg/injection, schedule: Q01DX009 (ip), vehicle: other): 5 of 6
survivor count (dose: 200.0 mg/kg/injection, schedule: Q01DX009 (ip), vehicle: other): 0 of 6
survivor count (dose: 400.0 mg/kg/injection, schedule: Q01DX009 (ip), vehicle: other): 0 of 6

CCc1c(Cl)c(C)cc(O)c1Cl
survivor count (dose: 100.0 mg/kg/injection, schedule: Q01DX009 (ip), vehicle: gum acacia): 4 of 6

CCCCC#C/C(C)=N\Nc1ccc([N+](=O)[O-])cc1[N+](=O)[O-]
survivor count [10]: 3 of 3
